Laboratory results published in PubChem BioAssay AID1347072 (National Center for Advancing Translational Sciences (NCATS), 2019).
The campaign covered roughly 44,000 compounds. Fewer than 10 were called active. The inconclusive results got no clear call from the source; some entries with a clear call stand among them for comparison. The call rests on the fitted dose curve; in most records, active means well fitted curve in the direction sought with a large enough effect; inconclusive means small, poorly fitted or top-dose-only effect, or another doubt; inactive means no such curve, though single readings can be large or run the other way. Where the call is inconclusive, the potency comes from a doubtful curve fit.

Chains of the proteins cited; added tags and fusions are not shown. Lines headed by an entry give the natural chain unless they say otherwise; changes in a name come on top.
UniProt P51570: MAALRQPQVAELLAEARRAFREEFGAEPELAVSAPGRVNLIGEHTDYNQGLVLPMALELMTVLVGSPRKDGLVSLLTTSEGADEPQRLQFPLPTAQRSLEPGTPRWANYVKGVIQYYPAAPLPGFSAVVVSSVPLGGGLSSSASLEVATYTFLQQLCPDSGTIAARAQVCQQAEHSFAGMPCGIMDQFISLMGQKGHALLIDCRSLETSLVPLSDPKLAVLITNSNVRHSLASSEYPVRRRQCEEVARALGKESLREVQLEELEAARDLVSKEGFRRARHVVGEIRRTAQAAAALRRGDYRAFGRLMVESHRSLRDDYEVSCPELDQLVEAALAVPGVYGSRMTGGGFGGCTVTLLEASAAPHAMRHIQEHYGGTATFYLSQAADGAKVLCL

target: Galactokinase (Homo sapiens) (UniProt P51570); assay: qHTS Assay for Inhibitors of Human Galactokinase (GALK): NCGC Sytravon Library Screen; conditions: recombinant GALK, Kinase-Glo ATP luminescence, 1 h; series mostly up to 57.5 µM; activity, negative = inhibition: at the top concentration;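 on activity, negative = inhibition: plate controls were full GALK reaction for no effect and reaction lacking GALK for full effect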
Method in brief: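 Compounds were pinned into ATP buffer, then GALK-galactose mix was added (final 5 nM enzyme, 35 uM ATP, 100 uM galactose, pH 8.0). After 1 h at room temperature, Kinase-Glo Plus was added and luminescence read.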

| SMILES | activity, negative = inhibition | Potency |
| --- | --- | --- |
| O=C(CSc1nnc(-c2ccc([N+](=O)[O-])cc2)o1)Nc1ccccc1 | inactive: -2.83% |  |
| Cc1ccc(C2=NN(CC(=O)NCCN(CC(C)C)CC(C)C)C(=O)CC2)cc1 |  | inconclusive: 0.224 µM [inhibitor, full curve, poor fit] |
| CCC(Sc1nc2nccnc2c(=O)n1Cc1ccc(OC)cc1)C(=O)NC1CCCCC1 (stereo not drawn) |  | inconclusive: 25.1 µM [inhibitor, partial curve, poor fit] |
| O=C1OC(C(=O)Nc2ccc(Cl)c(C(F)(F)F)c2)Cc2ccccc21 (stereo not drawn) | inactive: 0% |  |
| COc1ccc(-c2cn3c(n2)sc2cc(C(=O)Nc4cc(Cl)ccc4C)ccc23)cc1 |  | inconclusive: 5.01 µM [inhibitor, full curve, poor fit] |
| Cc1ccc(Nc2nc3ccccc3c3nncn23)cc1C |  | inconclusive: 0.794 µM [inhibitor, full curve, poor fit] |
| Cc1ccc2[nH]c3c(=O)n(CC(=O)N(CCN(C)C)Cc4ccccc4)ncc3c2c1 |  | inconclusive: 35.5 µM [inhibitor, partial curve, poor fit] |
| CCc1c(C)nc2nncn2c1NCc1ccccc1 | inactive: -0.133% |  |
| Cc1ccc(/C=C(\C#N)c2nc3ccccc3c(=O)[nH]2)cc1 |  | inconclusive: 8.91 µM [inhibitor, full curve, poor fit] |
| O=C(Cn1cc(SCc2c(F)cccc2Cl)c2ccccc21)N1CCCC1 |  | inconclusive: 1.58 µM [inhibitor, full curve, poor fit] |
| Cc1ccc(NC(=O)Cn2c(=O)n(Cc3nc(C)no3)c(=O)c3cc4c(cc32)OCO4)cc1 |  | inconclusive: 1.58 µM [inhibitor, full curve, poor fit] |
| CCS(=O)(=O)c1cccc(C(=O)Nc2ccc(-c3nc4ccccc4s3)c(O)c2)c1 | inactive: 1.14% |  |
| O=C(Nc1cccc(C(F)(F)F)c1)Nc1ccc2snnc2c1 |  | inconclusive: 17.8 µM [inhibitor, partial curve, poor fit] |
| N#Cc1cccc(NC(=O)C2CCN(c3nc(-c4ccc(Cl)cc4)no3)CC2)c1 |  | inconclusive: 44.7 µM [inhibitor, partial curve, poor fit] |
| Cn1nc(C(=O)NCCc2ccc(Cl)cc2)c2c1-c1ccccc1SC2 |  | inconclusive: 1 µM [inhibitor, full curve, poor fit] |
| O=C(Nc1ccc2nc(SCC(=O)N3CCCc4ccccc43)sc2c1)c1ccc(Cl)cc1 |  | inconclusive: 0.126 µM [inhibitor, full curve, poor fit] |
| Cc1ccccc1-c1noc(-c2nnn(-c3ccccc3C)c2N)n1 |  | inconclusive: 17.8 µM [inhibitor, partial curve, poor fit] |
| Cc1cc(C)cc(NC(=O)Cn2c(=O)n(Cc3ccc4c(c3)OCO4)c(=O)c3oc4ccccc4c32)c1 |  | inconclusive: 3.98 µM [inhibitor, partial curve, poor fit] |
| Cc1ccc(CN(C(=O)c2ccccc2[N+](=O)[O-])c2ccccn2)cc1 |  | inconclusive: 39.8 µM [inhibitor, partial curve, poor fit] |

| SMILES | activity, negative = inhibition | Potency |
| --- | --- | --- |
| CCCCCc1nn2cc(-c3ccccc3)nc2s1 |  | inconclusive: 39.8 µM [inhibitor, partial curve, poor fit] |
| COc1cccc(CNCCSc2nnnn2C)c1OCc1ccc(F)cc1 |  | inconclusive: 7.08 µM [inhibitor, partial curve, poor fit] |
| CCC(C)n1c(=O)c2sccc2n2c(CCCC(=O)Nc3ccc(F)cc3)nnc12 (stereo not drawn) |  | inconclusive: 0.501 µM [inhibitor, partial curve, poor fit] |
| COc1ccc2c(c1)CC(C(=O)Nc1ccc(Br)c(C)c1)CO2 (stereo not drawn) |  | inconclusive: 3.16 µM [inhibitor, full curve, poor fit] |
| Cc1ccc(Cl)cc1NC(=O)NC1COc2ccccc2C1 (stereo not drawn) |  | inconclusive: 39.8 µM [inhibitor, partial curve, poor fit] |
| Cc1cc(C)cc(-n2c(SCC(=O)Nc3cccc(F)c3)nc3c([nH]c4ccccc43)c2=O)c1 |  | inconclusive: 3.98 µM [inhibitor, full curve, poor fit] |
| COc1ccc(OC)c(NC(=O)Cn2c(=O)n(Cc3ccco3)c(=O)c3cc(OC)c(OC)cc32)c1 | inactive: -7.43% |  |
| Cc1ccc(C)c(N2CCN(c3ncnc4onc(C)c34)CC2)c1 | inactive: 4.12% |  |
| CCOC(=O)c1ccccc1NC(=O)CSc1ccc(-c2sc(-c3ccccc3)nc2C)nn1 |  | inconclusive: 1 µM [inhibitor, full curve, poor fit] |
| COc1ccc(CCNC(=O)CCCCn2c(=O)c3ccccc3n(Cc3ccccc3)c2=O)cc1OC | inactive: -5.81% |  |
| CCC(=O)Nc1ccc(CC)cc1-c1nc2ccccc2n(CC(=O)c2ccc(OC)cc2)c1=O |  | inconclusive: 0.141 µM [inhibitor, full curve] |
| COc1ccc(NS(=O)(=O)c2ccc3c(c2)[C@H]2C=CC[C@H]2[C@@H](c2ccc(C(=O)O)cc2)N3)cc1 |  | inconclusive: 28.2 µM [inhibitor, partial curve, poor fit] |
| CN1C(=O)C(C)(C)c2cc(S(=O)(=O)NCc3ccc(C(=O)Nc4ccc(Cl)cc4)cc3)ccc21 |  | inconclusive: 1.78 µM [inhibitor, full curve, poor fit] |
| COc1ccc(S(=O)(=O)NCCc2csc(-c3ccc(F)cc3)n2)cc1 | inactive: 0.272% |  |
| Fc1cccc(-n2ncc3c2ncn2nc(COc4ccc(Cl)cc4)nc32)c1 | inactive: 3.3% |  |
| NC(=O)c1ccccc1NC(=O)c1ccc(-c2ccc(Br)cc2)o1 |  | inconclusive: 2.24 µM [inhibitor, full curve, poor fit] |
| Cc1ccc(-c2c(CN3CCN(c4cc(Cl)ccc4C)CC3)csc2C)cc1 |  | inconclusive: 0.794 µM [inhibitor, full curve, poor fit] |
| Cn1nc(C(=O)N2CCN(c3ccccc3)CC2)c2c1-c1ccccc1SC2 |  | inconclusive: 1.26 µM [inhibitor, full curve, poor fit] |
| O=C(Nc1ccccc1C(=O)N1CCCCC1)c1nsc2ccccc12 |  | inconclusive: 15.8 µM [inhibitor, partial curve, poor fit] |

Shown field by field: 2 of the compounds above.
COc1ccc(OC)c(NC(=O)Cn2c(=O)n(Cc3ccco3)c(=O)c3cc(OC)c(OC)cc32)c1
  activity, negative = inhibition: inactive: -7.43%
Cc1ccc(C)c(N2CCN(c3ncnc4onc(C)c34)CC2)c1
  activity, negative = inhibition: inactive: 4.12%
